Experimental data as given in the supplement of paper PMC10331698.
± gives the standard deviation of the averaged measurements. Small differences around the control level are noise.

Legend:
Test in all cases: level (log10 ratio to DMSO vehicle control); higher = higher biomarker level / cell amount than vehicle control
[1] = compound: C=C(C)C(=O)OCCC(F)(F)C(F)(F)C(F)(F)C(F)(F)C(F)(C(F)(F)F)C(F)(F)F [(Perfluoro-5-methylhexyl)ethyl 2-methylprop-2-enoate]; settings: in DMSO
Method: (§1)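 BioMAP Diversity Plus panel of 12 human primary cell co-culture systems (3C, 4H, LPS, SAg, BT, BF4T, BE3C, CASM3C, HDF3CGF, KF3CT, MyoF, Mphg). Compounds were added 1 h before stimulation and left for 24 h (MyoF 48 h; BT 72 h for soluble read-outs or 6 d for IgG). Biomarkers were read by ELISA, cytotoxicity by SRB, PBMC viability and proliferation by Alamar Blue. Each well value was divided by the mean of 8 DMSO control wells on the same plate and log10 transformed; duplicate blinded samples were tested at 4 concentrations.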

[2] = compound: C=C(C)C(=O)OCCC(F)(F)C(F)(F)C(F)(F)C(F)(F)C(F)(F)C(F)(F)C(F)(F)C(F)(F)F [8:2 Fluorotelomer methacrylate]; settings: in DMSO
Method: as §1

[3] = compound: COC(=O)CCC(F)(F)C(F)(F)C(F)(F)C(F)(F)F [Methyl 2H,2H,3H,3H-perfluoroheptanoate]; settings: 2200 nM; in DMSO
Method: as §1

[4] = compound: FC(F)(F)C(F)(F)C(F)(F)C(F)(F)C(F)(F)CCI [1-Iodo-1H,1H,2H,2H-perfluoroheptane]; settings: 2200 nM; in DMSO
Method: as §1

Octafluoroadipamide = compound: NC(=O)C(F)(F)C(F)(F)C(F)(F)C(F)(F)C(N)=O [Octafluoroadipamide]; settings: 2200 nM; in DMSO
Method: as §1

Nonafluoropentanamide = compound: NC(=O)C(F)(F)C(F)(F)C(F)(F)C(F)(F)F [Nonafluoropentanamide]; settings: 2200 nM; in DMSO
Method: as §1

[5] = compound: NS(=O)(=O)C(F)(F)C(F)(F)C(F)(F)C(F)(F)C(F)(F)C(F)(F)F [Perfluorohexanesulfonamide]; settings: 2200 nM; in DMSO
Method: as §1

Tetrafluorosuccinic acid = compound: O=C(O)C(F)(F)C(F)(F)C(=O)O [Tetrafluorosuccinic acid]; settings: 2200 nM; in DMSO
Method: as §1

[6] = compound: O=C(O)C(F)(F)C(F)(F)C(F)(F)C(F)(F)C(F)(F)C(F)(F)C(F)(F)C(F)(F)Cl [9-Chloro-perfluorononanoic acid]; settings: in DMSO
Method: as §1

[7] = compound: O=C(O)CCC(F)(F)C(F)(F)C(F)(F)C(F)(F)C(F)(F)F [2H,2H,3H,3H-Perfluorooctanoic acid]; settings: 2200 nM; in DMSO
Method: as §1

[8] = compound: O=S(=O)(O)C(F)(F)C(F)(F)OC(F)(F)C(F)(F)F [Perfluoro(2-ethoxyethane)sulfonic acid]; settings: 2200 nM; in DMSO
Method: as §1

[9] = compound: O=S(=O)(O)CCC(F)(F)C(F)(F)C(F)(F)C(F)(F)C(F)(F)C(F)(F)F [6:2 Fluorotelomer sulfonic acid]; settings: in DMSO
Method: as §1

Perfluoropinacol = compound: OC(C(F)(F)F)(C(F)(F)F)C(O)(C(F)(F)F)C(F)(F)F [Perfluoropinacol]; settings: in DMSO
Method: as §1

[10] = compound: OCCC(F)(F)C(F)(F)C(F)(F)C(F)(F)F [4:2 Fluorotelomer alcohol]; settings: 2200 nM; in DMSO
Method: as §1

Row | Test System | level (log10) ([1]; 740 nM) | level (log10) ([1]; 2200 nM) | level (log10) ([1]; 6700 nM) | level (log10) ([1]; 20000 nM) | level (log10) ([2]; 740 nM) | level (log10) ([2]; 2200 nM) | level (log10) [3] | level (log10) [4] | level (log10) (Octafluoroadipamide) | level (log10) (Nonafluoropentanamide) | level (log10) [5] | level (log10) (Tetrafluorosuccinic acid) | level (log10) ([6]; 2200 nM) | level (log10) ([6]; 6700 nM) | level (log10) ([6]; 20000 nM) | level (log10) [7] | level (log10) [8] | level (log10) ([9]; 2200 nM) | level (log10) ([9]; 6700 nM) | level (log10) ([9]; 20000 nM) | level (log10) ([9]; 60000 nM) | level (log10) (Perfluoropinacol; 2200 nM) | level (log10) (Perfluoropinacol; 6700 nM) | level (log10) (Perfluoropinacol; 20000 nM) | level (log10) [10]
1 | MyoF:Decorin | -0.0155 ± 0.011 | -0.0095 ± 0.028 | -0.006 ± 0.037 | 0.008 ± 0.052 | -0.005 ± 0.02 | -0.015 ± 0.0057 | 0.006 ± 0.025 | -0.038 ± 0.042 | 0.001 ± 0.027 | 0.008 ± 0.025 | -0.03 ± 0.16 | 0.013 ± 0.02 | -0.016 ± 0.028 | 0.012 ± 0.0014 | -0.0045 ± 0.05 | -0.005 ± 0.0042 | -0.006 ± 0.0085 | -0.0025 ± 0.005 | 0.0105 ± 0.0035 | 0.0015 ± 0.00071 | 0.0435 ± 0.0021 | -0.0265 ± 0.028 | -0.041 ± 0.024 | -0.034 ± 0.025 | 0.018 ± 0.028
2 | 4H:SRB | 0.0045 ± 0.011 | 0.002 ± 0.0028 | 0.002 ± 0.013 | -0.0025 ± 0.019 | 0.006 ± 0.0028 | -0.0095 ± 0.019 | 0.0105 ± 0.012 | 0.0025 ± 0.0064 | -0.0065 ± 0.011 | -0.0025 ± 0.0092 | 0.0025 ± 0.0035 | 0.004 ± 0.0014 | -0.0005 ± 0.0035 | -0.0015 ± 0.00071 | -0.0055 ± 0.0035 | 0.005 ± 0.0014 | -0.0035 ± 0.0064 | 0.005 ± 0.0042 | -0.0015 ± 0.0021 | 0.0035 ± 0.018 | -0.004 ± 0.027 | -0.0075 ± 0.0078 | -0.0345 ± 0.015 | -0.13 ± 0.0078 | -0.0035 ± 0.012
3 | MyoF:CD106/VCAM-1 | -0.0125 ± 0.0021 | 0.002 ± 0.025 | 0.0095 ± 0.0092 | -0.013 ± 0.0028 | -0.0115 ± 0.0078 | 0.002 ± 0.0057 | -0.0245 ± 0.0021 | 0.003 ± 0.021 | -0.0005 ± 0.005 | -0.011 ± 0.017 | -0.0175 ± 0.016 | -0.0145 ± 0.0021 | -0.0215 ± 0.0078 | -0.008 ± 0.025 | -0.101 ± 0.023 | -0.016 ± 0.023 | -0.0145 ± 0.011 | -0.023 ± 0.0028 | -0.003 ± 0.0028 | -0.012 ± 0.0099 | -0.0095 ± 0.005 | -0.014 ± 0.014 | -0.013 ± 0.011 | -0.042 ± 0.0085 | 0.002 ± 0.021
4 | KF3CT:CXCL8/IL-8 | 0.0065 ± 0.022 | -0.01 ± 0.023 | -0.013 ± 0.037 | 0.006 ± 0.03 | -0.0125 ± 0.0035 | -0.0075 ± 0.012 | 0 ± 0.0071 | -0.0005 ± 0.011 | -0.002 ± 0.0099 | -0.0305 ± 0.043 | -0.008 ± 0.0042 | -0.013 ± 0.0028 | 0.0085 ± 0.0021 | 0.0015 ± 0.021 | -0.0025 ± 0.0035 | -0.0065 ± 0.033 | 0.0245 ± 0.018 | 0.002 ± 0.04 | -0.0005 ± 0.035 | -0.001 ± 0.027 | -0.0455 ± 0.022 | 0.0115 ± 0.013 | -0.018 ± 0.011 | -0.005 ± 0.0042 | -0.003 ± 0.0099
5 | BF4T:Keratin 8/18 | -0.031 ± 0.0085 | -0.0345 ± 0.0092 | -0.024 | -0.0115 ± 0.0078 | 0.001 ± 0.027 | -0.0125 ± 0.019 | 0.01 ± 0.016 | 0.0145 ± 0.011 | 0.013 ± 0.013 | -0.0025 ± 0.018 | 0.0085 ± 0.023 | -0.019 ± 0.024 | 0.016 ± 0.044 | -0.004 ± 0.0057 | -0.0105 ± 0.0035 | 0.008 ± 0.018 | 0.0185 ± 0.005 | 0.0105 ± 0.03 | 0.0075 ± 0.019 | -0.0065 ± 0.016 | 0.0045 ± 0.011 | 0.005 ± 0.051 | -0.013 ± 0.0099 | -0.036 ± 0.0071 | 0.002 ± 0.0028
6 | MyoF:Collagen III | -0.028 ± 0.0014 | -0.028 ± 0.0057 | -0.0135 ± 0.052 | -0.0455 ± 0.04 | -0.0175 ± 0.0078 | -0.0065 ± 0.011 | -0.023 ± 0.02 | 0.0005 ± 0.021 | -0.0025 ± 0.00071 | -0.04 ± 0.013 | 0 ± 0.013 | -0.0185 ± 0.0078 | -0.0245 ± 0.013 | -0.033 ± 0.027 | -0.498 ± 0.0085 | -0.0225 ± 0.023 | -0.0095 ± 0.005 | -0.021 ± 0.034 | -0.011 ± 0.013 | -0.02 ± 0.017 | -0.0055 ± 0.015 | -0.0255 ± 0.0021 | -0.0405 ± 0.011 | -0.136 ± 0.0014 | 0.0045 ± 0.016
7 | KF3CT:CXCL9/MIG | 0.0145 ± 0.013 | 0.0095 ± 0.022 | 0.018 ± 0.014 | 0.0215 ± 0.023 | 0.003 ± 0.0071 | -0.0045 ± 0.0092 | 0.001 ± 0.014 | 0.0085 ± 0.0064 | 0.008 ± 0.023 | 0.0165 ± 0.0078 | -0.0025 ± 0.0092 | -0.004 ± 0.016 | -0.007 ± 0.014 | 0.0025 ± 0.0092 | -0.0015 ± 0.0021 | -0.0075 ± 0.016 | 0.0085 ± 0.016 | -0.005 ± 0.0085 | 0.0005 ± 0.013 | -0.0025 ± 0.022 | 0.0005 ± 0.013 | 0.004 ± 0.018 | 0.002 ± 0.0028 | -0.004 ± 0.0071 | -0.0105 ± 0.011
8 | 3C:CCL2/MCP-1 | 0.018 ± 0.065 | -0.007 ± 0.0057 | -0.0145 ± 0.025 | 0.006 ± 0.044 | -0.0125 ± 0.005 | -0.0005 ± 0.012 | 0.0165 ± 0.0092 | 0.013 ± 0.011 | 0.0115 ± 0.029 | 0.016 ± 0.028 | 0.01 ± 0.018 | 0.006 ± 0.034 | 0.0045 ± 0.06 | 0.015 ± 0.054 | -0.0065 ± 0.037 | 0.028 ± 0.014 | 0.0085 ± 0.043 | 0.0345 ± 0.012 | -0.0095 ± 0.021 | -0.017 ± 0.024 | 0.012 ± 0.0071 | 0.035 ± 0.03 | 0.092 ± 0.013 | 0.0445 ± 0.012 | 0.008 ± 0.037
9 | CASM3C:PAI-I | -0.007 ± 0.0057 | -0.0135 ± 0.005 | -0.004 ± 0.0014 | 0.002 ± 0.0014 | 0.0035 ± 0.00071 | -0.0015 ± 0.00071 | 0.0015 ± 0.013 | 0.0025 ± 0.0064 | -0.0005 ± 0.025 | 0.0065 ± 0.0092 | -0.0045 ± 0.0092 | -0.002 ± 0.0028 | -0.0095 ± 0.0078 | -0.002 ± 0.0071 | 0.0065 ± 0.0078 | -0.0065 ± 0.019 | 0.0025 ± 0.00071 | 0.001 ± 0.02 | -0.001 ± 0.023 | -0.0025 ± 0.015 | 0 ± 0.0099 | -0.0025 ± 0.0078 | -0.006 ± 0.0071 | -0.0075 ± 0.0064 | 0.017 ± 0.0028
10 | 3C:CD141/Thrombomodulin | 0.034 ± 0.064 | 0.0275 ± 0.059 | 0.041 ± 0.033 | 0.005 ± 0.033 | 0 ± 0.03 | -0.0125 ± 0.013 | -0.023 ± 0.023 | -0.0175 ± 0.0035 | 0.0555 ± 0.073 | -0.0025 ± 0.028 | -0.021 ± 0.041 | -0.0035 ± 0.019 | 0.0025 ± 0.044 | -0.017 ± 0.016 | -0.008 ± 0.02 | -0.005 ± 0.058 | 0.0145 ± 0.018 | 0.0055 ± 0.033 | -0.0065 ± 0.05 | -0.0475 ± 0.019 | -0.0415 ± 0.033 | -0.019 ± 0.02 | -0.0165 ± 0.0021 | -0.033 ± 0.034 | -0.0145 ± 0.0078

Complete entries from above. Values in the order: level (log10) ([1]; 740 nM) | level (log10) ([1]; 2200 nM) | level (log10) ([1]; 6700 nM) | level (log10) ([1]; 20000 nM) | level (log10) ([2]; 740 nM) | level (log10) ([2]; 2200 nM) | level (log10) [3] | level (log10) [4] | level (log10) (Octafluoroadipamide) | level (log10) (Nonafluoropentanamide) | level (log10) [5] | level (log10) (Tetrafluorosuccinic acid) | level (log10) ([6]; 2200 nM) | level (log10) ([6]; 6700 nM) | level (log10) ([6]; 20000 nM) | level (log10) [7] | level (log10) [8] | level (log10) ([9]; 2200 nM) | level (log10) ([9]; 6700 nM) | level (log10) ([9]; 20000 nM) | level (log10) ([9]; 60000 nM) | level (log10) (Perfluoropinacol; 2200 nM) | level (log10) (Perfluoropinacol; 6700 nM) | level (log10) (Perfluoropinacol; 20000 nM) | level (log10) [10]
4H:SRB in the list: 0.0045 ± 0.011 | 0.002 ± 0.0028 | 0.002 ± 0.013 | -0.0025 ± 0.019 | 0.006 ± 0.0028 | -0.0095 ± 0.019 | 0.0105 ± 0.012 | 0.0025 ± 0.0064 | -0.0065 ± 0.011 | -0.0025 ± 0.0092 | 0.0025 ± 0.0035 | 0.004 ± 0.0014 | -0.0005 ± 0.0035 | -0.0015 ± 0.00071 | -0.0055 ± 0.0035 | 0.005 ± 0.0014 | -0.0035 ± 0.0064 | 0.005 ± 0.0042 | -0.0015 ± 0.0021 | 0.0035 ± 0.018 | -0.004 ± 0.027 | -0.0075 ± 0.0078 | -0.0345 ± 0.015 | -0.13 ± 0.0078 | -0.0035 ± 0.012
CASM3C:PAI-I in the list: -0.007 ± 0.0057 | -0.0135 ± 0.005 | -0.004 ± 0.0014 | 0.002 ± 0.0014 | 0.0035 ± 0.00071 | -0.0015 ± 0.00071 | 0.0015 ± 0.013 | 0.0025 ± 0.0064 | -0.0005 ± 0.025 | 0.0065 ± 0.0092 | -0.0045 ± 0.0092 | -0.002 ± 0.0028 | -0.0095 ± 0.0078 | -0.002 ± 0.0071 | 0.0065 ± 0.0078 | -0.0065 ± 0.019 | 0.0025 ± 0.00071 | 0.001 ± 0.02 | -0.001 ± 0.023 | -0.0025 ± 0.015 | 0 ± 0.0099 | -0.0025 ± 0.0078 | -0.006 ± 0.0071 | -0.0075 ± 0.0064 | 0.017 ± 0.0028
